Experimental data: PubChem BioAssay AID1347075 (National Center for Advancing Translational Sciences (NCATS), 2019)
Among all 400,000 compounds or so, about 5,500 (1.4%) were called active. The inconclusive results got no clear call from the source; some entries with a clear call stand among them for comparison. Calls come from the whole dose curve; as a rule, active = well fitted cell-killing curve with a large enough effect; inconclusive = small, poorly fitted or top-dose-only effect, or effect the other way; inactive = flat fitted curve, though single readings scatter. Potencies of inconclusive entries are doubtful fits and often do not repeat.

Test: qHTS assay for MDR1-selective chemotherapeutics: Primary screen using the parental adenocarcinoma cell KB-3-1; note: nearly all actives have a fitted effect of over 60% in size
Details: KB-3-1 viability, CellTiter-Glo ATP luminescence, 72 h; activity change, negative = cytotoxic: at 46.1 µM (top of the series)
How it was run: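 Cytotoxicity measured as CellTiter-Glo luminescence after 72 h at 37 C. Compound titrations were pinned onto drug-naive KB-3-1 parental adenocarcinoma cells grown in DMEM with 10% FBS, and normalized data fitted to concentration-response curves.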
% is set by controls: 0 for no effect and ±100 for the full control effect; potency is the fitted concentration of half-maximal effect.

SMILES | Potency | activity change, negative = cytotoxic
COc1ccc(-c2ccc(N3C(c4ccsc4)=Cc4ccc(F)cc4C3c3c[nH]c4ccccc34)cc2)cc1 (stereo not given) | inconclusive: 20.6 µM [cytotoxic, single point] | –
N#Cc1ccccc1OCC(=O)Nc1ccc(S(=O)(=O)N2CCOCC2)cc1 | inactive | –
CCCc1nnc(SCC(=O)Nc2ccccc2Cl)n1CC1CCCO1 (stereo not given) | inactive | –
Cc1ccc(NC(=O)[C@H](NC(=O)[C@@H]2Cc3ccccc3CN2)c2ccccc2)cc1 | inactive | –
CCCCOc1ccc(C(=O)Nc2ccc(N3CCN(C)CC3)cc2)cc1 | inconclusive: 25.9 µM [cytotoxic, single point] | –
COc1cc(C(=O)n2nc(C)cc2C)ccc1O | inconclusive: 29.1 µM [cytotoxic, partial curve, poor fit] | –
COc1ccc(S(=O)(=O)Nc2cc([N+](=O)[O-])ccc2OC)cc1 | inconclusive: 18.4 µM [cytotoxic, single point] | –
CC1=C(C(N)=O)C(c2ccc(C)cc2)n2nc(SCc3ccccc3F)nc2N1 (stereo not given) | inactive | –
N#Cc1ccsc1NC(=O)CCc1ccccc1 | inconclusive: 20.6 µM [cytotoxic, partial curve, poor fit] | –
CCC(C)NC(=O)C1CCN(S(=O)(=O)c2cc([N+](=O)[O-])ccc2Cl)CC1 (stereo not given) | inactive | –
Cc1nnc(NC(=O)c2ccc(S(=O)(=O)N3CC(C)CC(C)C3)cc2)o1 (stereo not given) | inconclusive: 29.1 µM [cytotoxic, single point] | –
C/C(=N/NC(=O)c1nnn(-c2nonc2N)c1-c1ccccc1)c1ccncc1 | inconclusive: 20.6 µM [rising, partial curve, poor fit] | –
O=C(Nc1ccccc1Cl)c1ccc(C(=O)Nc2ccccc2Cl)cc1 | inactive | –
CCOc1ccc(C(=O)CCC(=O)Nc2ccc(C)c(S(=O)(=O)N3CCCCC3)c2)cc1 | inactive | –
Cc1nc(C)n(CCNS(=O)(=O)c2ccc(C)c(C)c2)n1 | inactive | –
CC(C)OCCCNc1ncnc2c1nc1n2CCCC1 | inactive | –
Cc1ccc2cccc(Oc3ccc([N+](=O)[O-])cc3[N+](=O)[O-])c2n1 | inactive | –
CCc1c(C)nc(SCC(=O)N2CCCCC2CC)[nH]c1=O (stereo not given) | inactive | –
COc1cccc(NC(=O)N2CCc3nc(NCc4cccc(Oc5ccccc5)c4)ncc3C2)c1 | active: 8.2 µM | –
NS(=O)(=O)c1ccc(CCNc2ncnc3c2c(-c2ccccc2)cn3-c2ccc(F)cc2)cc1 | inconclusive: 23.1 µM [cytotoxic, single point] | –
COC(=O)C1=C(C)N(c2ccc(C)c(C)c2)/C(=C/c2cccs2)C1=O | inconclusive: 25.1 µM [cytotoxic, single point] | –
O=C(O)C1CCCN(C(=O)c2cccc3ccccc23)C1 (stereo not given) | – | inconclusive: 0%
COc1ccc(-c2cc(C(F)(F)F)nc(SCC(=O)N3CCCCC3C)n2)cc1OC (stereo not given) | inconclusive: 32.6 µM [cytotoxic, single point] | –

SMILES | Potency | activity change, negative = cytotoxic
CN1C(=O)C2(c3ccccc31)N(C)CC(c1ccccn1)C21SC(=S)N(Cc2ccco2)C1=O (stereo not given) | inconclusive: 16.4 µM [cytotoxic, single point] | –
COc1ccccc1N1CCN(CC(O)COCc2cccs2)CC1 (stereo not given) | inactive | –
COc1ccccc1NC(=S)N1CCN(C(=O)c2ccco2)CC1 | inactive | –
CC(C)C[C@H]1CN([C@@H](Cc2ccccc2)CN2CCC[C@H]2CN2C(=O)C(=O)NC[C@@H]2Cc2ccc(O)cc2)C(=O)C(=O)N1CC1CCCCC1 | inconclusive: 16.4 µM [cytotoxic, single point] | –
Cc1ccc(S(=O)(=O)Nc2ccc(N3CCOCC3)cc2)cc1 | inactive | –
COc1cccc(C(=O)NCC(c2cccnc2)N2CCN(c3ccccc3OC)CC2)c1 (stereo not given) | inconclusive: 29.1 µM [cytotoxic, single point] | –
O=C(/C=C/c1ccc(OCc2c(F)cccc2Cl)cc1)N1CCOCC1 | inconclusive: 14.6 µM [cytotoxic, single point] | –
CC1CC(C)(C)CC2(C1)NC(=O)N(CC(=O)N1CCN(S(=O)(=O)c3cccc(Cl)c3Cl)CC1)C2=O (stereo not given) | inconclusive: 29.1 µM [cytotoxic, partial curve, poor fit] | –
C=CCc1cccc(C=Nc2cc(Br)ccc2O)c1O | inactive | –
Cc1nc(COc2cccc(Cl)c2)sc1C(=O)/C=C/N(C)C | inconclusive: 16.4 µM [cytotoxic, single point] | –
CCOCCCn1c(=N)c(C(=O)NCc2cccnc2)cc2c(=O)n3cc(C)ccc3nc21 | inactive | –
COc1ccc(CN2CC(=O)N(c3ccc(Cl)cc3)C2=S)cc1OC | inconclusive: 25.9 µM [cytotoxic, single point] | –
Fc1ccc(N2CCN(c3ncnc4c3nc3n4CCCCC3)CC2)cc1 | inconclusive: 4.11 µM [cytotoxic, full curve, poor fit] | –
CC(=O)Oc1ccc(-c2csc(Nc3ccc(Cl)cn3)n2)cc1 | inconclusive: 16.4 µM [cytotoxic, partial curve, poor fit] | –
CCOc1ccc(N(C(=O)c2snc(C(N)=O)c2N)C(C(=O)NC2CCCC2)c2ccncc2)cc1 (stereo not given) | inconclusive: 16.4 µM [rising, single point] | –
O=C(Nc1ccc(Oc2cccnc2)cc1)C1CCN(Cc2cc(Cl)ccc2O)CC1 | active: 16.4 µM | –
COc1cc(NS(=O)(=O)c2ccc(C)cc2)c2ncccc2c1 | active: 9.2 µM | –
COc1ccc(-c2nn(-c3ccccc3)cc2/C=N/NC(=O)c2ccc(Br)o2)cc1 | inconclusive: 32.6 µM [cytotoxic, single point] | –
Cc1cccc(NC(=O)c2cccc(Cn3cc(Br)c([N+](=O)[O-])n3)c2)c1C | inconclusive: 29.1 µM [cytotoxic, single point] | –
Cc1nc(NC(=S)NC(=O)c2cncc(Br)c2)ccc1Br | inconclusive: 7.31 µM [cytotoxic, partial curve] | –
O=c1cc(-c2ccccc2Cl)oc2c(Br)ccc(O)c12 | inconclusive: 32.6 µM [cytotoxic, partial curve, poor fit] | –
Cn1c(N)c(C(=O)COC(=O)CC2CC3CCC2C3)c(=O)n(C)c1=O (stereo not given) | inactive | –

Three entries out of the list, arranged by length of the SMILES, low to high:
SMILES | Potency | activity change, negative = cytotoxic
N#Cc1ccsc1NC(=O)CCc1ccccc1 | inconclusive: 20.6 µM [cytotoxic, partial curve, poor fit] | –
Cc1ccc(S(=O)(=O)Nc2ccc(N3CCOCC3)cc2)cc1 | inactive | –
COC(=O)C1=C(C)N(c2ccc(C)c(C)c2)/C(=C/c2cccs2)C1=O | inconclusive: 25.1 µM [cytotoxic, single point] | –
